Results are given in words; binding and its absence hold for the method and conditions named. For some assays here: Binding calls can cover weak binding; strength is not graded here. Where a sequence is shown, tags or fusion partners need not be part of it.
What was measured:
Assay in all cases: two-hybrid; Gal4 system (Matchmaker Gold); C1-FDX, ACP1, ACP2 in pGADT7, CI and CV subunits in pGBKT7; yeast AH109; growth on SD/-Trp/-Leu/-His/-Ade/+ x-α-gal for 4 days at 30°C
[1] = biological target: T1, A6, Q module subunit of complex I, Gal4 DNA-binding domain fusion (Arabidopsis) (UniProt Q9LHI0)
T1 sequence: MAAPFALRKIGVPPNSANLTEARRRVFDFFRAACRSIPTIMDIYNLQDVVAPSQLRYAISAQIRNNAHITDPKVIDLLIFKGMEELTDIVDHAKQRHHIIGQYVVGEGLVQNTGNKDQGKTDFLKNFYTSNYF

[2] = biological target: T2, B9, PD module subunit of complex I, Gal4 DNA-binding domain fusion (Arabidopsis) (UniProt Q945M1)
T2 sequence: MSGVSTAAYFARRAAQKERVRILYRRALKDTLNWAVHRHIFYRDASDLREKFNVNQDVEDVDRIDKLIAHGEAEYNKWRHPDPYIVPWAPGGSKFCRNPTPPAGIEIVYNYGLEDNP

[3] = biological target: T3, CAL1, CA module subunit of complex I, Gal4 DNA-binding domain fusion (Arabidopsis) (UniProt Q9FMV1)
T3 sequence: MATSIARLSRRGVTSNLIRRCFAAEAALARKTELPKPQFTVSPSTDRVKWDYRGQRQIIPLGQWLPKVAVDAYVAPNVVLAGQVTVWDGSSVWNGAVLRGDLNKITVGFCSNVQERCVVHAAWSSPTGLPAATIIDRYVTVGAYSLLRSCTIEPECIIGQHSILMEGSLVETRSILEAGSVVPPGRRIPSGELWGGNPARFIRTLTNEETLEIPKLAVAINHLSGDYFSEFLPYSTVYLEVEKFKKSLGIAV

[4] = biological target: T4, OSCP (oligomycin sensitivity-conferring protein) subunit of complex V, Gal4 DNA-binding domain fusion (Arabidopsis) (UniProt Q96251)
T4 sequence: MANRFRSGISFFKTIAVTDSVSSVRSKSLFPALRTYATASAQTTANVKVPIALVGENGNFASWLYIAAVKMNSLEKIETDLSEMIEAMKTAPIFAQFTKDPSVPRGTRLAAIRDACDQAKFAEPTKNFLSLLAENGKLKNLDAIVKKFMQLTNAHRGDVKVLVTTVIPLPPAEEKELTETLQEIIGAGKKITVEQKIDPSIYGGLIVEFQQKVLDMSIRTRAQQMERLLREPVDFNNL

[5] = biological target: T5, c subunit of the Fo module of complex V, Gal4 DNA-binding domain fusion (Arabidopsis) (UniProt P60112)
T5 sequence: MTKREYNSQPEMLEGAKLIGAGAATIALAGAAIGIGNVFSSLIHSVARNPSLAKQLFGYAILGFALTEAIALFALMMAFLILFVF

[6] = biological target: T6, subunit d of complex V, Gal4 DNA-binding domain fusion (Arabidopsis) (UniProt Q9FT52)
T6 sequence: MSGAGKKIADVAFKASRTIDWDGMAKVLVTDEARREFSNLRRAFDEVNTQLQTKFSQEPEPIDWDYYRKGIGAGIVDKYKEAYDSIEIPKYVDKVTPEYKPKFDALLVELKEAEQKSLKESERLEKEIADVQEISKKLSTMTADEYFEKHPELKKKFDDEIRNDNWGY

[7] = biological target: T7, γ subunit of the F1 module of complex V, Gal4 DNA-binding domain fusion (Arabidopsis) (UniProt Q96250)
T7 sequence: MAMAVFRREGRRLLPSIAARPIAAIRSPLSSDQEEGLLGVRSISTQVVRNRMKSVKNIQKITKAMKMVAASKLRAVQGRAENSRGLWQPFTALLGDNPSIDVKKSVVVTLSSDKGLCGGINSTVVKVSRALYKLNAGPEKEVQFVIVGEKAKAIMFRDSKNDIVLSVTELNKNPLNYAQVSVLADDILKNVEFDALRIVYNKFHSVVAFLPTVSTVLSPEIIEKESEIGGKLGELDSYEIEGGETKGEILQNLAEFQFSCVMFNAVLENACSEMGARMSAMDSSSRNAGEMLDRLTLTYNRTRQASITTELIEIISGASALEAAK

[8] = biological target: T8, ε subunit of the F1 module of complex V, Gal4 DNA-binding domain fusion (Arabidopsis) (UniProt Q96253)
T8 sequence: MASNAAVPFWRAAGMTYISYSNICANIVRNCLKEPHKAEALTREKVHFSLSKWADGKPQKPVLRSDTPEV

## C1-FDX (Complex I-ferredoxin), Gal4 activation domain fusion (Arabidopsis)
[1]
  binding: binds
[2]
  binding: binds
[3]
  binding: binds
[4]
  binding: no binding
[5]
  binding: no binding
[6]
  binding: no binding
[7]
  binding: binds
[8]
  binding: binds

From PMC11446459
